# Data as given in article PMC12148026.
# Amino acid sequences for entries named in this document (tags omitted). A change or cut given only in a name is not applied to a line headed by its entry.
# UniProt Q96C45: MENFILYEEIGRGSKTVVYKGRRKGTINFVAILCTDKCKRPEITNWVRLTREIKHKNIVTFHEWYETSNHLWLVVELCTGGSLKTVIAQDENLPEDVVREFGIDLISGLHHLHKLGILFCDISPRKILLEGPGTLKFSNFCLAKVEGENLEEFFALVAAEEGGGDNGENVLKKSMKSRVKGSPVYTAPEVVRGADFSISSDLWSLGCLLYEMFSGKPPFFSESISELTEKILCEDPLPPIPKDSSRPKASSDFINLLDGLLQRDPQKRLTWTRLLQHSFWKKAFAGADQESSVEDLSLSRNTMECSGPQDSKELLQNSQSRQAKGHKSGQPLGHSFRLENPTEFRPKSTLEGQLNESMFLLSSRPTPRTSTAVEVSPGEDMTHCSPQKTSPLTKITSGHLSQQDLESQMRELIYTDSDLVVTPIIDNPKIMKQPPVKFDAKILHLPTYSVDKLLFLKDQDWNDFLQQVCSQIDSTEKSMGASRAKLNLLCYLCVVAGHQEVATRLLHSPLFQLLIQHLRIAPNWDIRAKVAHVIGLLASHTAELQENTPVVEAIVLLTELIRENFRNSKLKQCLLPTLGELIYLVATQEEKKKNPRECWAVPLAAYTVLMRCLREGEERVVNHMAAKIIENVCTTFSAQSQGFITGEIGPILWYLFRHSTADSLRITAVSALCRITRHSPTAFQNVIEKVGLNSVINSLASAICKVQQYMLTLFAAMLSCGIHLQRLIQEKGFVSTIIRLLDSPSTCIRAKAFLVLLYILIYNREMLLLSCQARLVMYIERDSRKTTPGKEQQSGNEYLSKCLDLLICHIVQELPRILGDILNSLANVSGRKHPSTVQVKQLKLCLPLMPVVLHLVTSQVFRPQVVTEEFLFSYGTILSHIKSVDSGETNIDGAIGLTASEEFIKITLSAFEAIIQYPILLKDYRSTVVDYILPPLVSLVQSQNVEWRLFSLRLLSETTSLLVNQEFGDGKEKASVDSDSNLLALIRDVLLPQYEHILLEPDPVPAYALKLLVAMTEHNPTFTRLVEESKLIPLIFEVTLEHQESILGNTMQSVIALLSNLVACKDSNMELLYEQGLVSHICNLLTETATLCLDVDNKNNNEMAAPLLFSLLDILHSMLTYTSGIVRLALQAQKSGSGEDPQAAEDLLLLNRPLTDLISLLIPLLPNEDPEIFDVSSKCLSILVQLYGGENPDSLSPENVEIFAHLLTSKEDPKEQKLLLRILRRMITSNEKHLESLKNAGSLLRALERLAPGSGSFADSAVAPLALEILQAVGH
# These are yes or no findings as the source states them, for the method shown. Binding seen in cells or lysates may run through a third protein. Some results given as binding are weak or reduced against the parent protein; the word gives no strength.
# Target: C-terminally HA-tagged wild type human Ulk4 (Ulk4-WT–HA) (human) (UniProt Q96C45)
# Experiment: co-IP; HEK293T cells transfected with Fg-tagged and HA-tagged Ulk4 constructs, immunoprecipitation and western blot with the indicated antibodies (which tag was precipitated is not given)
substance,measurement,value
"Flag-tagged Ulk4-EE (Ulk4-EE–Fg), phospho-mimetic human Ulk4 T1021E/T1023E (from UniProt Q96C45 1-1275)",binding,binds
